In patent publication US6890706B2, “Process for removing stain in a photographic material” (Ciba Specialty Chemicals Corporation, priority 1999, dated 2005):

What was measured:
[1] = Stain removal: CIE-L*a*b* of the white of paper developed in model processing solution with optical brightener; details: Kodak Edge5
[2] = as above; details: Fuji SFAVIII
[3] = as above; details: Agfa Typ10
[4] = 0.5 g/L active substance in developer
[5] = 1.0 g/L active substance in developer
[6] = 1.5 g/L active substance in developer

O=C([O-])CC(Nc1nc(Nc2ccccc2)nc(Nc2ccc(/C=C/c3ccc(Nc4nc(Nc5ccccc5)nc(NC(CC(=O)[O-])C(=O)[O-])n4)cc3S(=O)(=O)[O-])c(S(=O)(=O)[O-])c2)n1)C(=O)[O-].[Na+].[Na+].[Na+].[Na+].[Na+].[Na+] (stereo not shown) [B]
C (Chrominance) [1, 4]: 0.58 | H (Hue) [1, 4]: 240 | L* [1, 4]: 90.72 | a* [1, 4]: −0.3 | b* [1, 4]: −0.5 | C (Chrominance) [1, 5]: 0.81 | H (Hue) [1, 5]: 261 | L* [1, 5]: 90.79 | a* [1, 5]: −0.1 | b* [1, 5]: −0.8 | C (Chrominance) [1, 6]: 1.10 | H (Hue) [1, 6]: 270 | L* [1, 6]: 90.80 | a* [1, 6]: −0.1 | b* [1, 6]: −1.1 | C (Chrominance) [2, 4]: 1.27 | H (Hue) [2, 4]: 80 | L* [2, 4]: 90.11 | a* [2, 4]: 0.2 | b* [2, 4]: 1.3 | C (Chrominance) [2, 5]: 0.58 | H (Hue) [2, 5]: 60 | L* [2, 5]: 90.15 | a* [2, 5]: 0.3 | b* [2, 5]: 0.5 | C (Chrominance) [2, 6]: 0.30 | H (Hue) [2, 6]: 341 | L* [2, 6]: 90.14 | a* [2, 6]: 0.3 | b* [2, 6]: −0.1 | C (Chrominance) [3, 4]: 0.30 | H (Hue) [3, 4]: 90 | L* [3, 4]: 90.12 | a* [3, 4]: 0.0 | b* [3, 4]: 0.3 | C (Chrominance) [3, 5]: 0.78 | H (Hue) [3, 5]: 296 | L* [3, 5]: 90.13 | a* [3, 5]: 0.4 | b* [3, 5]: −0.7 | C (Chrominance) [3, 6]: 1.24 | H (Hue) [3, 6]: 285 | L* [3, 6]: 90.16 | a* [3, 6]: 0.3 | b* [3, 6]: −1.2

CN(CC(=O)[O-])c1nc(Nc2ccc(/C=C/c3ccc(Nc4nc(Nc5cc(S(=O)(=O)[O-])ccc5S(=O)(=O)[O-])nc(N(C)CC(=O)[O-])n4)cc3S(=O)(=O)[O-])c(S(=O)(=O)[O-])c2)nc(Nc2cc(S(=O)(=O)[O-])ccc2S(=O)(=O)[O-])n1.[Na+].[Na+].[Na+].[Na+].[Na+].[Na+].[Na+].[Na+] [H]
C (Chrominance) [1, 4]: 1.70 | H (Hue) [1, 4]: 270 | L* [1, 4]: 90.81 | a* [1, 4]: −0.1 | b* [1, 4]: −1.7 | C (Chrominance) [1, 5]: 1.92 | H (Hue) [1, 5]: 262 | L* [1, 5]: 90.79 | a* [1, 5]: −0.3 | b* [1, 5]: −1.9 | C (Chrominance) [2, 4]: 0.72 | H (Hue) [2, 4]: 284 | L* [2, 4]: 90.28 | a* [2, 4]: 0.3 | b* [2, 4]: −0.7 | C (Chrominance) [2, 5]: 1.22 | H (Hue) [2, 5]: 280 | L* [2, 5]: 90.31 | a* [2, 5]: 0.2 | b* [2, 5]: −1.2

O=C([O-])CC(Nc1nc(Nc2ccc(/C=C/c3ccc(Nc4nc(Nc5cc(S(=O)(=O)[O-])ccc5S(=O)(=O)[O-])nc(NC(CC(=O)[O-])C(=O)[O-])n4)cc3S(=O)(=O)[O-])c(S(=O)(=O)[O-])c2)nc(Nc2cc(S(=O)(=O)[O-])ccc2S(=O)(=O)[O-])n1)C(=O)[O-].[Na+].[Na+].[Na+].[Na+].[Na+].[Na+].[Na+].[Na+].[Na+].[Na+] (stereo not shown) [C]
C (Chrominance) [1, 5]: 1.50 | H (Hue) [1, 5]: 90 | L* [1, 5]: 89.81 | a* [1, 5]: −0.1 | b* [1, 5]: 1.5 | C (Chrominance) [2, 4]: 0.76 | H (Hue) [2, 4]: 67 | L* [2, 4]: 90.21 | a* [2, 4]: 0.3 | b* [2, 4]: 0.7 | C (Chrominance) [2, 5]: 0.39 | H (Hue) [2, 5]: 310 | L* [2, 5]: 90.28 | a* [2, 5]: 0.3 | b* [2, 5]: −0.3 | C (Chrominance) [3, 4]: 0.22 | H (Hue) [3, 4]: 295 | L* [3, 4]: 90.12 | a* [3, 4]: 0.1 | b* [3, 4]: −0.2 | C (Chrominance) [3, 5]: 1.15 | H (Hue) [3, 5]: 287 | L* [3, 5]: 90.30 | a* [3, 5]: 0.4 | b* [3, 5]: −1.1

O=CCC(Nc1nc(Nc2ccc(/C=C/c3ccc(Nc4nc(NC(CC(=O)[O-])C(=O)[O-])nc(NC(CC(=O)[O-])C(=O)[O-])n4)cc3S(=O)(=O)[O-])c(S(=O)(=O)[O-])c2)nc(NC(CC(=O)[O-])C(=O)[O-])n1)C(=O)[O-].[Na+].[Na+].[Na+].[Na+].[Na+].[Na+].[Na+].[Na+].[Na+].[Na+].[OH-] (stereo not shown) [D]
C (Chrominance) [3, 4]: 1.20 | H (Hue) [3, 4]: 90 | L* [3, 4]: 90.11 | a* [3, 4]: 0.1 | b* [3, 4]: 1.2 | C (Chrominance) [3, 5]: 1.00 | H (Hue) [3, 5]: 90 | L* [3, 5]: 90.22 | a* [3, 5]: 0.1 | b* [3, 5]: 1.0
